Values quoted from earlier work, collected in patent US20240358639A1, “NANOPARTICLES FOR CANCER TREATMENT” (Immix Biopharma, Inc., priority 2021, published 2024).

Question: With COc1cc(/C=C/C(=O)CC(=O)/C=C/c2ccc(O)c(OC)c2)ccc1O [Curcumin, (E,E)-1,7-bis (4 hydroxy-3-methoxyphenyl)-1,6-heptadiene-3,5,-dione] as the compound, how does the “solubility in organic solvents and alkalis” value (ethanol, alkalis, ketones, acetic acid and chloroform) read?
Answer: soluble

Question: And the solubility in water (water)?
Answer: insoluble
